Binding data for one molecule are collected here from paper PMC10135648.

Sequences of proteins named here, by UniProt entry; tags and fusion partners are left off.
UniProt P08050: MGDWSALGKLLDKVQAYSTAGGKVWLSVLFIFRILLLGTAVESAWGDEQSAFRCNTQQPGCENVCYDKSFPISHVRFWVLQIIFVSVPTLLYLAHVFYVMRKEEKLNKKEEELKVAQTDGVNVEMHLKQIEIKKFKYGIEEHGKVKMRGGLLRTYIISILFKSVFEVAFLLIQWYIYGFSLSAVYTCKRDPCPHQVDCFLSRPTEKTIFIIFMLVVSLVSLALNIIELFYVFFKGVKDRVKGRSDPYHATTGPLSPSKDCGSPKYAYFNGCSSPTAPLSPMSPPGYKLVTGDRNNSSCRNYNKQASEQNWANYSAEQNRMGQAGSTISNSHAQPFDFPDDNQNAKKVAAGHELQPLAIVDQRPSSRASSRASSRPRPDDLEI

These are yes or no findings as the source states them, for the method shown. In cells and extracts the contact can be indirect. Some results given as binding are weak or reduced against the parent protein; the word gives no strength.

In this assay the target is GST-tagged Cx43CT (V236-I382), carboxyl terminal domain of connexin43 (rat) (UniProt P08050). The experiment in a line: pull-down; GST-Cx43CT on glutathione beads, no cross-linker; Daudi or Jurkat cell lysate (1 mL, 2 mg/mL), 6 h at 4 °C; 50 mM HEPES pH 7.4, 150 mM NaCl, 1 mM DTT, 0.5% Triton X-100; Western blot with anti-BTK or anti-ITK; only the target purified. Background: A western blot detects proteins with antibodies after separation by electrophoresis.

B1: Interleukin-2-inducible T-cell kinase (ITK) (enzyme, UniProt Q08881 1-620)
chain: MNNFILLEEQLIKKSQQKRRTSPSNFKVRFFVLTKASLAYFEDRHGKKRTLKGSIELSRIKCVEIVKSDISIPCHYKYPFQVVHDNYLLYVFAPDRESRQRWVLALKEETRNNNSLVPKYHPNFWMDGKWRCCSQLEKLATGCAQYDPTKNASKKPLPPTPEDNRRPLWEPEETVVIALYDYQTNDPQELALRRNEEYCLLDSSEIHWWRVQDRNGHEGYVPSSYLVEKSPNNLETYEWYNKSISRDKAEKLLLDTGKEGAFMVRDSRTAGTYTVSVFTKAVVSENNPCIKHYHIKETNDNPKRYYVAEKYVFDSIPLLINYHQHNGGGLVTRLRYPVCFGRQKAPVTAGLRYGKWVIDPSELTFVQEIGSGQFGLVHLGYWLNKDKVAIKTIREGAMSEEDFIEEAEVMMKLSHPKLVQLYGVCLEQAPICLVFEFMEHGCLSDYLRTQRGLFAAETLLGMCLDVCEGMAYLEEACVIHRDLAARNCLVGENQVIKVSDFGMTRFVLDDQYTSSTGTKFPVKWASPEVFSFSRYSSKSDVWSFGVLMWEVFSEGKIPYENRSNSEVVEDISTGFRLYKPRLASTHVYQIMNHCWKERPEDRPAFSRLLRQLAEIAESGL
On to B1, for which the binding entry was “binds”.
